In patent publication US20040013674A1 (APOXIS, published 2004):
These are yes or no findings as the source states them, for the method shown. Binding seen in cells or lysates may run through a third protein. Some binding calls cover weakened binding; strength is not graded here. Where a sequence is shown, tags or fusion partners need not be part of it.

Amino acid sequences for entries named in this document (tags omitted). A change or cut given only in a name is not applied to a line headed by its entry.
UniProt Q9D777: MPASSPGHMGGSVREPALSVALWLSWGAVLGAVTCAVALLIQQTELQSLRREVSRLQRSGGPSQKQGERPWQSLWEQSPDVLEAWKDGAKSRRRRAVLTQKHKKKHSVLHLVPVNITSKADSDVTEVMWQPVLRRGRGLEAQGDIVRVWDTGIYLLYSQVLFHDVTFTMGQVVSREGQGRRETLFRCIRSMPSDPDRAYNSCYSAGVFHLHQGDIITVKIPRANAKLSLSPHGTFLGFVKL

Legend:
[1] = target: FLAG-tagged soluble extracellular domain of murine APRIL (plasmid PS784, also called LT032) (murine) (UniProt Q9D777); experiment: co-immunoprecipitation on protein A-Sepharose, anti-FLAG Western blot
[2] = target: FLAG-tagged soluble extracellular domain of murine APRIL (plasmid PS784, also called LT032) (murine) (UniProt Q9D777); experiment: co-immunoprecipitation on protein A-Sepharose, anti-FLAG M2 Western blot

binding [1]: binds
binding [2]: binds
B1: human TACI(1-160)-Ig fusion protein (plasmid PS882) (Fc fusion)
chain: MSGLGRSRRGGRSRVDQEERFPQGLWTGVAMRSCPEEQYWDPLLGTCMSCKTICNHQSQRTCAAFCRSLSCRKEQGKFYDHLLRDCISCASICGQHPKQCAYFCENKLRSPVNLPPELRRQRSGEVENNSDNSGRYQGLEHRGSEASPALPGLKLSADQV
notes: Used as conditioned medium (Optimem) of 293 cells; also called hTACI(1-160)-Ig; soluble hTACI(1-160)-Ig; not shown: human IgG Fc
